Assay results published in patent publication US20110065633A1 (INDIANA UNIVERSITY RESEARCH AND TECHNOLOGY CORPORATION, priority 2008, published 2011).

Test: solid-phase peptide synthesis
[1] = whole synthesis, analytical HPLC, C18 Vydac, UV 214 nm, scale of the general procedure 0.2 mmol (Boc/PAM), 0.1 mmole (Fmoc)
[2] = whole synthesis, scale 0.1 mmole

Q: Which results are given for “H2N-Phe-Thr-Ser-homoCys(SO3H)-Tyr-Ser-Lys-Tyr-Leu-Asp-Ser-Arg-Arg-Ala-Gln-Asp-Phe-Val-Gln-Trp-Leu-Met-Asn-Thr-NH2”?
A: isolated mass (whole synthesis): 15˜20 mg; final HPLC purity [1]: 95%; isolated yield (whole synthesis, overall, scale of the general procedure 0.2 mmol (Boc/PAM), 0.1 mmole (Fmoc)): 10˜15% yield totally; crude mass (whole synthesis, scale 0.05 mmole): 100˜130 mg

Q: With “[PLA6, E9, C24(40K)]glucagon (6-29) amide” as the substance, how does the “final HPLC purity” value (conjugation step, 214 nm) read?
A: 90% HPLC purity

Q: Which “final HPLC purity” value [1] does the source give for [PLA6, E9]glucagon(6-29) amide here?
A: 95%

Q: What about the crude mass [2] of the same substance?
A: 200˜250 mg

Q: What about the isolated mass [2] of the same substance?
A: 25˜40 mg
